Experimental data reported in PMC12475974.
No constants are given. Whether binding was seen depends on the method and setting. Binding seen in cells or lysates may run through a third protein. Some binding calls cover weakened binding; strength is not graded here.

Amino acid sequences for entries named in this document (tags omitted).
UniProt Q9QZL0: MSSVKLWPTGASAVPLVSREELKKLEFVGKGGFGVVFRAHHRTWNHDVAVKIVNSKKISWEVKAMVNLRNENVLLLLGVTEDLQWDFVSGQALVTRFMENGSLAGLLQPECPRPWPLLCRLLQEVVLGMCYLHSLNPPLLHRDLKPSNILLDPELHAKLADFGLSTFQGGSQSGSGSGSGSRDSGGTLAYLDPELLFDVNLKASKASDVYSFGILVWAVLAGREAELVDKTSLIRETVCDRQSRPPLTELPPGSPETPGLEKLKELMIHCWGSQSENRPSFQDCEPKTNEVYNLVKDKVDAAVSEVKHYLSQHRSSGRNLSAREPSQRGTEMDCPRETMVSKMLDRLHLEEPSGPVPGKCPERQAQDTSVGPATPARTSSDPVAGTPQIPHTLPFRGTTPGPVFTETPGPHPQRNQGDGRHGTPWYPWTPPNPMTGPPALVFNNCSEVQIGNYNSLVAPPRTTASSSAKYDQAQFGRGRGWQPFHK

Biological target: T1, tank-binding kinase 1 (TBK1) (mouse (endogenous in bone marrow-derived MDSCs)) (UniProt Q9WUN2)
T1 sequence: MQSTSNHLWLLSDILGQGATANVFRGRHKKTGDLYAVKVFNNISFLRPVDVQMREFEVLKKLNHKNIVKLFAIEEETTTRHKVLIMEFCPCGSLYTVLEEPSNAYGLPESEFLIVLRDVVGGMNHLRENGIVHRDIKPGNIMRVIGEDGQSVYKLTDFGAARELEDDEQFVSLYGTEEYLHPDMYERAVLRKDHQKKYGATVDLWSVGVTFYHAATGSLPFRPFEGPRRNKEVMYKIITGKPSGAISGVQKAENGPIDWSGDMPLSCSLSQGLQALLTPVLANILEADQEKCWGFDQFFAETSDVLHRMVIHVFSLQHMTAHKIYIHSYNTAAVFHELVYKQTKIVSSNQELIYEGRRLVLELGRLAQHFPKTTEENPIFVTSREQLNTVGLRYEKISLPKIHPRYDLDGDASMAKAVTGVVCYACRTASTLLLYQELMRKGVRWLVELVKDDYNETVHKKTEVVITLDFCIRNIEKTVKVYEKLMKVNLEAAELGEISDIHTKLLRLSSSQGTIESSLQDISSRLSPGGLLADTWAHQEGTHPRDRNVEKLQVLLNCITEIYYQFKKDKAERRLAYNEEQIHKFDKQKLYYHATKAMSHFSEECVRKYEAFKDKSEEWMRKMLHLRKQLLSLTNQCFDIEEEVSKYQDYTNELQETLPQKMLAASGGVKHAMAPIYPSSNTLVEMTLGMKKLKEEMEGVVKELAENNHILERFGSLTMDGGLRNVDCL
Experiment: co-IP; whole cell lysates (NP40/IP lysis buffer) of Ch25h f/f and Ch25h f/f Lyz2Cre(±) MDSCs; primary antibodies or normal mouse IgG overnight at 4°C, magnetic beads, PBST washes, protein blotting

binding: binds
Substance: receptor-interacting protein kinase 3 (RIPK3) (from UniProt Q9QZL0 1-486)
